One compound from PMC10266261, “A High-Throughput Approach to Identify Specific Neurotoxicants / Developmental Toxicants in Human Neuronal Cell Function Assays” (ALTEX, 2018) can be followed below.

In assay [1] the test system is immature human dorsal root ganglia neurons. Kind of assay: cells. The class given is cell-based. As to conditions: Neuron. As for the experimental part:
The PeriTox test (= UKN5) is based on cells differentiated from the H9 human embryonic stem cell (hESC) line (WA09 line), which was obtained from WiCell (Madison, WI, USA). The import of cells and the experiments were authorized under license no. 170–79-1–4-27 (Robert Koch Institute, Berlin, Germany).
After one hour, 25 μl PDM with 4x concentrated serial dilutions of the test compounds was added to the cells. At 23 h after treatment, the cells were stained with SM and incubated for one additional hour at 37°C.
Image acquisition was performed with an ArrayScan VTI HCS (high content imaging) microscope (Cellomics, Waltham, MA, USA).
After automated imaging, an algorithm was applied that identified the neuronal somata (based on identified nuclei) and subtracted the somatic area from the total neuronal area to obtain the neurite area (NA), i.e., the number of pixels per field covered by neurites. […] Viability (V) was expressed as percentage of live cells relative to control.
Neurite area (NA) and viability (V) were always expressed as percentage of the DMSO control. In a first step, matched technical replicates were averaged. […] Curve fitting was performed employing a 4-parameter log-logistic function with least squares fit. […] The variation of DMSO controls was calculated from pooled values of DMSO controls over several experiments. […]

The test system of a further assay is LUHMES cells. The experiment in a line: cells. The class given is cell-based. The conditions noted are these: Homo sapiens, 24 h, read-out: EC50(NA), neurite area. The protocol:
For the NeuriTox test (= UKN4), LUHMES (Lund human mesencephalic) cells were characterized and cultured as described in detail earlier ([Krug et al., 2013]; [Lotharius et al., 2005]; [Scholz et al., 2011]). Briefly, cells were maintained in proliferation medium (PM: AdvDMEM/F12 supplemented with 2 mM glutamine, 1x N2 supplement and 40 ng/ml fibroblast growth factor-2) in PLO/fibronectin coated flasks (50 μg/ml poly-L-ornithine (PLO) and 1 μg/ml fibronectin). For differentiation, cells were seeded at a density of 46,000 cells/cm^2 in PM. […]
The procedure was applied as detailed earlier ([Hoelting et al., 2016]; [Stiegler et al., 2011]). […] Cells with normal-sized nuclei that were calcein-positive were counted as live cells, whereas H-33342 single-positive cells were counted as dead cells. Viability (V) was expressed as percentage of live cells relative to control.
Neurite area (NA) and viability (V) were always expressed as percentage of the DMSO control. […] The variation of DMSO controls was calculated from pooled values of DMSO controls over several experiments.
For calculation of the benchmark concentration values (BMC), a benchmark response (BMR) of three standard deviations of DMSO solvent controls of all assay plates (= “3 x noise level”) was used. […] To identify specific effects on neurite outgrowth, the EC50 ratio of EC50(viability)/EC50(neurite area) was calculated. […]

As usually defined, the EC50 is the concentration giving half of the maximal effect.

Like-named read-outs stand apart in the source and are kept apart here.

In the case of `COc1cc2c(c(OC)c1OC)-c1ccc(OC)c(=O)cc1[C@@H](NC(C)=O)CC2` [Colchicine], the EC50 in assay [1] (24 h, read-out: EC50(NA), neurite area) stood at 20 nM; in assay [1] (read-out: EC50(V), viability, surrogate marked ♦), 300 nM; in the assay with LUHMES cells, 30 nM.
